Measurements reported in PubChem BioAssay AID1224830 (NIAID, 2016)
Shown is an unselected part of about 18,000 reagents tested. Of all reagents, about 2,900 (16%) got an active call. 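Calls are made per well; low scores hint the gene aids the LPS response, high scores that it dampens it.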 A number with no mark means an inactive call. Repeated entries: four replicate wells of each siRNA pool.

Screen: 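Host factors that control LPS-induced TNF expression in human macrophages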 (primary screen)
System: human THP-1 monocytic leukaemia cells, TNF dual-luciferase reporter clone, PMA-differentiated to macrophage-like cells
Knock-down reagent: siRNA pool against human genes, 50 nM
Time to read-out: LPS for 4 h, given about 3 days after siRNA transfection
Challenge: bacterial LPS (TLR4 ligand), 10 ng/ml
Measurement: 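Ratio of firefly to renilla light, scaled to the plate median and expressed as a robust z-score per replicate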
Scale: TNF reporter robust z-score: higher = stronger TNF reporter response to LPS
Active means: 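Each well counts as active if its z-score is over 2.8 or under -1.5; controls are left without a call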

SYNE1: TNF reporter robust z-score = -0.49
SYNE1: TNF reporter robust z-score = -0.23
SYNE1: TNF reporter robust z-score = -0.32
SYNE1: TNF reporter robust z-score = -0.7
PCDHGC5: TNF reporter robust z-score = -1.4
PCDHGC5: TNF reporter robust z-score = -1.1
PCDHGC5: TNF reporter robust z-score = -0.47
PCDHGC5: TNF reporter robust z-score = -0.34
ANKRD29: TNF reporter robust z-score = 0.31
ANKRD29: TNF reporter robust z-score = 1.9
ANKRD29: TNF reporter robust z-score = 1.11
ANKRD29: TNF reporter robust z-score = 3.42 (active)
CDCA4: TNF reporter robust z-score = -0.36
CDCA4: TNF reporter robust z-score = -0.23
CDCA4: TNF reporter robust z-score = -0.12
CDCA4: TNF reporter robust z-score = 0.15
PIP5K1C: TNF reporter robust z-score = -1.23
PIP5K1C: TNF reporter robust z-score = -0.52
PIP5K1C: TNF reporter robust z-score = -0.63
PIP5K1C: TNF reporter robust z-score = -0.97

Laid out differently: results already given
target gene	TNF reporter robust z-score
PIP5K1C	-1.23
PIP5K1C	-0.52
PIP5K1C	-0.63

The listing continues.
ACTR2: TNF reporter robust z-score = -1.71 (active)
ACTR2: TNF reporter robust z-score = -1.46
ACTR2: TNF reporter robust z-score = -1.69 (active)
ACTR2: TNF reporter robust z-score = -0.43
ZDHHC21: TNF reporter robust z-score = -1.08
ZDHHC21: TNF reporter robust z-score = -0.48
ZDHHC21: TNF reporter robust z-score = 2.43
ZDHHC21: TNF reporter robust z-score = 0.6
SLC52A2: TNF reporter robust z-score = 0.8
SLC52A2: TNF reporter robust z-score = 0.71
SLC52A2: TNF reporter robust z-score = 0.28
SLC52A2: TNF reporter robust z-score = 0.75
LXN: TNF reporter robust z-score = 3.08 (active)
LXN: TNF reporter robust z-score = 0.93
LXN: TNF reporter robust z-score = 3.06 (active)
LXN: TNF reporter robust z-score = 1.97
LPIN3: TNF reporter robust z-score = -0.23
LPIN3: TNF reporter robust z-score = 1.5
LPIN3: TNF reporter robust z-score = 0.85
LPIN3: TNF reporter robust z-score = 0.42
KNG1: TNF reporter robust z-score = -0.96
KNG1: TNF reporter robust z-score = 2.2
KNG1: TNF reporter robust z-score = 2.63
KNG1: TNF reporter robust z-score = 1.96
PRR18: TNF reporter robust z-score = -1.43
PRR18: TNF reporter robust z-score = -0.45
PRR18: TNF reporter robust z-score = -1.32
PRR18: TNF reporter robust z-score = -1.46
